PubChem BioAssay AID504784, Drosophila RNAi Screening Center, 2011
In all, the deposit lists about 17,000 reagents; this is an unselected part of those that have a named target and a result. 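Each column is one replicate's B-score; the combined score over replicates was not deposited, so single values may mislead.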 A plus sign joins genes that one reagent is predicted to hit.

Assay: 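Search for regulators of lipid droplet storage in oleate-fed fly cells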 (primary screen)
Cells: Drosophila Kc167 embryonic cells
Reagent: long dsRNA against Drosophila genes, about 250 ng dsRNA per well
Time to read-out: 4 days
Treatment: cells fed 400 µM oleic acid bound to BSA
Measurement: 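Microscope images give a droplet-to-nucleus area ratio, taken as log and converted to a screen-wide B-score; higher values mean greater lipid storage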
Scale: droplet/nuclear area B-score: higher = more stored lipid (overstorage)

droplet/nuclear area B-score, replicate 1 | droplet/nuclear area B-score, replicate 2 | droplet/nuclear area B-score, replicate 3 | Gene | amplicon
0.312 | 0.461 | – | NaCP60E | DRSC04307
1.05 | 0.00742 | – | NaCP60E | DRSC21351
0.182 | 0.431 | – | Alg1 | DRSC15297
0.297 | 1.62 | – | Rcd1 | DRSC07116
-1.2 | -0.654 | – | CG17048 | DRSC06649
0.356 | 0.527 | – | Shaw | DRSC00433
-1.52 | -2.12 | 2.14 | Shaw | DRSC00788
1.92 | 1.89 | – | Shaw | DRSC21368
-2.67 | -0.397 | – | Acbp1 | DRSC03093
-0.0486 | -0.302 | – | CAP | DRSC06743
2.24 | 1.56 | – | CAP | DRSC06744
-1.4 | -0.0393 | – | CAP | DRSC06745
-0.114 | -1.39 | – | CAP | DRSC06846
-1.17 | 0.012 | – | pk | DRSC06178
-0.122 | -0.554 | – | pk | DRSC07664
5.1 | -0.273 | – | pk | DRSC22156
0.187 | -0.676 | – | Art4 | DRSC15779
-1.23 | 0.644 | – | CG9068 | DRSC07329
0.0118 | -1.05 | – | osk | DRSC17023
0.044 | 0.00286 | – | CG16837 | DRSC04283
-1.11 | -2.69 | – | CG31924 | DRSC00689
-1.3 | – | – | LManV | DRSC03223
0.206 | -0.0598 | – | CG13096 | DRSC02198
0.192 | 1.3 | – | CG3117 | DRSC00568
0.569 | 0.0321 | – | CG14332 | DRSC14811
1.76 | – | – | nAChRbeta3 | DRSC00325
3.08 | 0.209 | – | mRpL35 | DRSC14586
2 | 1.88 | – | CG12477 | DRSC09886
-1.16 | 0.0742 | – | CG14805 | DRSC18554
0.199 | -0.633 | – | CG9541 | DRSC03257
-1.07 | 0.53 | – | CG4928 | DRSC19342
0.571 | 0.0156 | – | CG30148 | DRSC06391
-1.12 | 0.00743 | -1.49 | osi | DRSC02931
-3.56 | -2.42 | -3.35 | Smr | DRSC19495
0.0716 | -0.707 | 1.71 | Smr | DRSC20288
0.517 | 0.0962 | – | Smr | DRSC22986
0.0211 | -0.698 | – | ninaB | DRSC16807
0.791 | 0.217 | -0.0801 | CG6839 | DRSC10723
0.00618 | 0.223 | – | Mal-B2 | DRSC02417
0.804 | 0.216 | – | Gcn5 | DRSC11248
0.0121 | -0.299 | 0.333 | Rich | DRSC11607
0.192 | – | – | CG8187 | DRSC07099
-1.02 | 3.7 | 0.94 | GIIIspla2 | DRSC18094
-0.886 | -0.191 | – | Socs16D | DRSC20087
-1.39 | -0.00455 | – | Socs16D | DRSC23165
1.12 | 1.86 | – | eIF4EHP | DRSC13653
-0.562 | -1.83 | – | eIF4EHP | DRSC14265

The list goes on, starting with the last 8 of the part before.
droplet/nuclear area B-score, replicate 1 | droplet/nuclear area B-score, replicate 2 | droplet/nuclear area B-score, replicate 3 | Gene | amplicon
0.804 | 0.216 | – | Gcn5 | DRSC11248
0.0121 | -0.299 | 0.333 | Rich | DRSC11607
0.192 | – | – | CG8187 | DRSC07099
-1.02 | 3.7 | 0.94 | GIIIspla2 | DRSC18094
-0.886 | -0.191 | – | Socs16D | DRSC20087
-1.39 | -0.00455 | – | Socs16D | DRSC23165
1.12 | 1.86 | – | eIF4EHP | DRSC13653
-0.562 | -1.83 | – | eIF4EHP | DRSC14265
-1.29 | -0.057 | -0.154 | Cfp1 | DRSC18128
0.402 | 0.628 | – | CG15253 | DRSC01871
0.0325 | 0.487 | -0.479 | e(y)2 | DRSC19640
-0.048 | 0.688 | 0.655 | CG2533 | DRSC19855
1.93 | 2.89 | – | CG11663 | DRSC17793
-2.7 | -1.59 | – | CG11663 | DRSC23063
-2.76 | -1.22 | – | CG6928 | DRSC10749
-0.506 | 0.315 | – | TTLL5 | DRSC14181
-0.124 | -0.821 | – | Wdr33 | DRSC12162
-0.071 | -0.0111 | – | Cad96Ca | DRSC14220
0.0004 | 0.0438 | – | Cad96Ca | DRSC16693
-1.57 | 0.0341 | – | cyp33 + CG34194 | DRSC05666
-0.437 | 0.161 | – | CG3902 | DRSC10387
2.16 | 0.275 | – | lectin-21Ca | DRSC00541
-0.574 | -1.09 | – | CG16972 | DRSC02550
0.0941 | -1.7 | – | CG12479 | DRSC19459
– | 1.29 | – | lin-28 | DRSC10261
-1.06 | -0.478 | – | CG40378 (retired record) | DRSC22174
0.209 | 0.025 | – | CG7707 | DRSC10903
-2.07 | 1.14 | – | EMRE | DRSC06686
0.0432 | -0.02 | – | CG30076 | DRSC05494
1.68 | -1.04 | 1.14 | Lip3 | DRSC16727
1.71 | 0.00376 | 1.05 | CG2186 | DRSC19838
-0.0927 | 2.36 | – | CG8958 | DRSC20134
3.3 | 0.733 | – | CG11322 | DRSC02142
0.0204 | 0.13 | – | CG7884 | DRSC20065
1.87 | -0.104 | – | dpp | DRSC00118
-0.0263 | -0.521 | – | dpp | DRSC00121
-1 | -1.22 | – | dpp | DRSC00813
0.118 | 1.94 | – | CG14932 | DRSC02414
-0.367 | -0.19 | – | mal | DRSC20581
-0.643 | 1.47 | -1.74 | CG12057 | DRSC17797
0.0242 | 0.469 | – | CG9062 | DRSC07327
-0.387 | – | 1.49 | CG32631 | DRSC19768
-0.997 | -0.82 | – | fzr2 | DRSC04280
-1.36 | -0.0259 | 0.015 | Ccp84Ad | DRSC12589
-0.815 | -1.46 | – | Ccp84Ad | DRSC22854
